Measurements published in publication PMC12670160, “A drug-repurposing screen of FDA- and EMA-approved drugs identifies two NF-κB inhibitors active against eumycetoma” (Journal of Antimicrobial Chemotherapy, 2025).
Where a name gives a salt, the structure may show the parent alone. Read-outs that look alike come from different tables or passages of the source. About 130 (2.5%) of roughly 5,300 compounds showed an effect of 50% or more. This is one part of the list.

System: M. mycetomatis strain mm55
Details: primary screen, metabolic activity vs growth control, 96 h, 2 µM, inhibitor

| SMILES | % viability [%] | % viability (Madurella mycetomatis metabolic activity at 2µM (%)) [%] |
| --- | --- | --- |
| CN1[C@@H]2CC[C@@H]1CC(OC(c1ccccc1)c1ccccc1)C2 (stereo partly shown) [ONC0005113, benztropine mesylate] | 76.96 | – |
| CC[C@H](NC(=O)c1c(C)c(-c2ccccc2)nc2ccccc12)c1ccccc1 [ONC0003001, sb222200] | 60.49 | – |
| NCC(O)(CS(=O)(=O)O)c1ccc(Cl)cc1 (stereo not shown) [ONC0000147, 2hydroxysaclofen] | 104.7 | – |
| COc1cc(/C=C/c2ccc(O)cc2)cc(OC)c1 [ONC0005458, pterostilbene] | 95.29 | – |
| CCOC(=O)c1ncn2c1CN(C)C(=O)c1cc(F)ccc1-2 [ONC0004084, flumazenil] | 104.1 | – |
| CC(C)(S)C(=O)N[C@@H](CS)C(=O)O [ONC0003276, bucillamine] | 45.36 | – |
| O=C(O)CCCNC(=O)c1cccnc1 [ONC0003758, pikamilone] | 120.3 | – |
| CC1=C(C(=O)Nc2cc3cn[nH]c3cc2F)C(c2ccc(C(F)(F)F)cc2)CC(=O)N1 (stereo not shown) [ONC0004890, gsk429286a] | 115.5 | – |
| CNC(=O)c1ccccc1Nc1nc(Nc2ccc(N3CCOCC3)cc2OC)ncc1Cl [ONC0005255, nvptae226] | 135.1 | – |
| CCOc1cc(CC(=O)N[C@@H](CC(C)C)c2ccccc2N2CCCCC2)ccc1C(=O)O [ONC0005405, repaglinide] | 79.78 | – |
| Cc1cc(C)c2nc(-c3ccccn3)cc(C(=O)Nc3ccc(S(=O)(=O)Nc4onc(C)c4C)cc3)c2c1 [ONC0000413, ml193] | 52.65 | – |
| C[C@@H]1C(=O)O[C@H]2[C@H](O)C34[C@H]5C[C@@H](C(C)(C)C)[C@]36[C@@H](OC(=O)[C@@H]6O)O[C@@]4(C(=O)O5)[C@@]12O (stereo partly shown) [ONC0001626, ginkgolideb] | 80.27 | – |
| COc1ccc(-c2cnc3c(-c4cccc5ncccc45)cnn3c2)cc1 [ONC0002277, chr6494] | – | 84.04 |
| CCOC(=O)C1=C(C)NC(C)=C(C(=O)OCC)C1c1ccccc1/C=C/C(=O)OC(C)(C)C [ONC0004923, lacidipine lacipil motens] | 105.2 | – |
| CCc1ccc(Cc2ccc3c(c2)[C@]2(OC3)O[C@H](CO)[C@@H](O)[C@H](O)[C@H]2O)cc1 [ONC0000886, tofogliflozin hydrate] | 64.04 | – |
| Cc1cc(C(=O)Nc2nc3cccc(Cl)c3n2[C@@H]2CCCCN(C(=O)/C=C/CN(C)C)C2)ccn1 [ONC0001107, nazartinib] | 39.34 | – |
| O=S(=O)(c1ccccc1)N(CC(F)(F)F)c1ccc(C(O)(C(F)(F)F)C(F)(F)F)cc1 [ONC0001352, t0901317] | 94.19 | – |
| COc1cc(S(C)(=O)=O)ccc1Nc1nc2ccc(-c3ccc(NC(=O)[C@H](C)c4ccc(F)cc4)cc3)cn2n1 [ONC0000808, empesertib] | 78.03 | – |
| C[C@H](NC[C@H](O)CP(=O)(O)CC1CCCCC1)c1ccc(Cl)c(Cl)c1 [ONC0000010, cgp54626] | 100 | – |

| SMILES | % viability [%] | % viability (Madurella mycetomatis metabolic activity at 2µM (%)) [%] |
| --- | --- | --- |
| CN[C@@H]1[C@@H](O)[C@@H](O[C@@H]2[C@@H](O)[C@H](O[C@H]3O[C@H](CN)[C@@H](O)[C@H](O)[C@H]3O)[C@@H](N)C[C@H]2NC(=O)[C@@H](O)CN)OC[C@]1(C)O [ONC0004760, isepamicin sulphate] | 106.1 | – |
| O=C(O)C(Cc1ccccc1)CN(O)C(=O)Cc1ccccc1 (stereo not shown) [ONC0005512, cpa inhibitor] | 134 | – |
| COc1cccc([C@H](O)C2CCN(CCc3ccc(F)cc3)CC2)c1OC [ONC0003821, volinanserin] | 55.98 | – |
| COc1cc(F)c(F)c(Nc2ccc(I)cc2F)c1NS(=O)(=O)C1(C[C@H](O)CO)CC1 [ONC0005631, refametinib] | 80.67 | – |
| O=C(O)c1ccc(OCCn2ccnc2)cc1 [ONC0003331, dazoxiben] | 112.5 | – |
| C#C[C@]1(O)CC[C@H]2[C@@H]3CCc4cc(O)ccc4[C@H]3CC[C@@]21C [ONC0000739, ethinyl estradiol] | 92.75 | – |
| CCCCN(CCCC)CCC(O)c1cc2c(Cl)cc(Cl)cc2c2cc(C(F)(F)F)ccc12 (stereo not shown) [ONC0003518, halofantrinehcl] | 46.17 | – |
| CS(=O)(=O)N1CCN(Cc2cc3nc(-c4cccc5[nH]ncc45)nc(N4CCOCC4)c3s2)CC1 [ONC0004658, pictilisib gdc0941] | 69.9 | – |
| CC(C)NCC(O)c1ccc(O)c(O)c1 (stereo not shown) [ONC0000608, isoproterenol hydrochloride] | 81.88 | – |
| Cc1cc(N2CCOCC2)cc2[nH]c(-c3c(NC[C@@H](O)c4cccc(Cl)c4)cc[nH]c3=O)nc12 [ONC0000809, bms536924] | 85.16 | – |
| COC(=O)Nc1nc2ccc([S+]([O-])c3ccccc3)cc2[nH]1 (stereo not shown) [ONC0004180, oxfendazole] | 72.44 | – |
| CC(C)(C)NC(=O)[C@@H]1C[C@@H]2CCCC[C@@H]2CN1C[C@@H](O)[C@H](Cc1ccccc1)NC(=O)[C@H](CC(N)=O)NC(=O)c1ccc2ccccc2n1 [ONC0003473, saquinavir mesylate] | 64.63 | – |
| CO[C@@H](C(=O)N1Cc2n[nH]c(NC(=O)c3ccc(N4CCN(C)CC4)cc3)c2C1)c1ccccc1 [ONC0004749, danusertib pha739358] | 112.5 | – |
| Oc1ccc(-c2c(-c3ccccc3)nn3c(C(F)(F)F)cc(C(F)(F)F)nc23)cc1 [ONC0001317, phtpp] | 86.47 | – |
| COc1ccc(S(=O)(=O)Nc2c(C)cc(C)cc2C)cc1 [ONC0003048, gsk37647] | 110.6 | – |
| Nc1nc2c(ncn2COCCO)c(=O)[nH]1 [ONC0002439, acyclovir] | 82.13 | – |
| CC(C)(CCCCCC(O)CCCCCC(C)(C)C(=O)O)C(=O)O [ONC0002532, etc1002] | 66.69 | – |
| O=C(O)Cn1c2c(c3cc(F)ccc31)CN(C(=O)c1cccc3ccccc13)CC2 [ONC0001062, setipiprant] | 62.06 | – |

Not a retest: ten of the compounds above.

| SMILES | % viability [%] | % viability (Madurella mycetomatis metabolic activity at 2µM (%)) [%] |
| --- | --- | --- |
| O=C(O)C(Cc1ccccc1)CN(O)C(=O)Cc1ccccc1 (stereo not shown) [ONC0005512, cpa inhibitor] | 134 | – |
| COc1cccc([C@H](O)C2CCN(CCc3ccc(F)cc3)CC2)c1OC [ONC0003821, volinanserin] | 55.98 | – |
| COc1cc(F)c(F)c(Nc2ccc(I)cc2F)c1NS(=O)(=O)C1(C[C@H](O)CO)CC1 [ONC0005631, refametinib] | 80.67 | – |
| O=C(O)c1ccc(OCCn2ccnc2)cc1 [ONC0003331, dazoxiben] | 112.5 | – |
| C#C[C@]1(O)CC[C@H]2[C@@H]3CCc4cc(O)ccc4[C@H]3CC[C@@]21C [ONC0000739, ethinyl estradiol] | 92.75 | – |
| CCCCN(CCCC)CCC(O)c1cc2c(Cl)cc(Cl)cc2c2cc(C(F)(F)F)ccc12 (stereo not shown) [ONC0003518, halofantrinehcl] | 46.17 | – |
| CS(=O)(=O)N1CCN(Cc2cc3nc(-c4cccc5[nH]ncc45)nc(N4CCOCC4)c3s2)CC1 [ONC0004658, pictilisib gdc0941] | 69.9 | – |
| CC(C)NCC(O)c1ccc(O)c(O)c1 (stereo not shown) [ONC0000608, isoproterenol hydrochloride] | 81.88 | – |
| Cc1cc(N2CCOCC2)cc2[nH]c(-c3c(NC[C@@H](O)c4cccc(Cl)c4)cc[nH]c3=O)nc12 [ONC0000809, bms536924] | 85.16 | – |
| COC(=O)Nc1nc2ccc([S+]([O-])c3ccccc3)cc2[nH]1 (stereo not shown) [ONC0004180, oxfendazole] | 72.44 | – |
